Results reported in publication doi:10.1101/2021.06.01.446621.

By UniProt entry, the sequences of proteins in these tests, tags left out.
UniProt Q8WVT3: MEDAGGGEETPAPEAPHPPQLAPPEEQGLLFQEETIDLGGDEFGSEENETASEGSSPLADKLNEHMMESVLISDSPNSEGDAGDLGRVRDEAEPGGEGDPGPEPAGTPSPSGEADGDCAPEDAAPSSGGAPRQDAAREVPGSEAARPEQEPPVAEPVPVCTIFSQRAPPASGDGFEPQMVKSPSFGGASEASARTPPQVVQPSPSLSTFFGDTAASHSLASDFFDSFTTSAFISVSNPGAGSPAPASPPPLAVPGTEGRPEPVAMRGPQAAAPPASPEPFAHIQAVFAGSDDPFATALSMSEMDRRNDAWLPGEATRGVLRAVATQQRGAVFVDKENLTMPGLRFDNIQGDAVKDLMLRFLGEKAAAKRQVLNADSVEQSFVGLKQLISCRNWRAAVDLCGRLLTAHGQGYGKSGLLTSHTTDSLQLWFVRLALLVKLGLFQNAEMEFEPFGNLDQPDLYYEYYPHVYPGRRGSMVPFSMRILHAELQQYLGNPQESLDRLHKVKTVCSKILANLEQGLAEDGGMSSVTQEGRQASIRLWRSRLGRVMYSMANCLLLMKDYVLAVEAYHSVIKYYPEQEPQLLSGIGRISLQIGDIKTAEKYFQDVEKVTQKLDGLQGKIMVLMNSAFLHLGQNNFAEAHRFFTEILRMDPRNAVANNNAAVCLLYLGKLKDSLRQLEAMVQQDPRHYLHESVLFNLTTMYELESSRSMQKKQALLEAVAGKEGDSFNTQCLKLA
UniProt Q7Z392: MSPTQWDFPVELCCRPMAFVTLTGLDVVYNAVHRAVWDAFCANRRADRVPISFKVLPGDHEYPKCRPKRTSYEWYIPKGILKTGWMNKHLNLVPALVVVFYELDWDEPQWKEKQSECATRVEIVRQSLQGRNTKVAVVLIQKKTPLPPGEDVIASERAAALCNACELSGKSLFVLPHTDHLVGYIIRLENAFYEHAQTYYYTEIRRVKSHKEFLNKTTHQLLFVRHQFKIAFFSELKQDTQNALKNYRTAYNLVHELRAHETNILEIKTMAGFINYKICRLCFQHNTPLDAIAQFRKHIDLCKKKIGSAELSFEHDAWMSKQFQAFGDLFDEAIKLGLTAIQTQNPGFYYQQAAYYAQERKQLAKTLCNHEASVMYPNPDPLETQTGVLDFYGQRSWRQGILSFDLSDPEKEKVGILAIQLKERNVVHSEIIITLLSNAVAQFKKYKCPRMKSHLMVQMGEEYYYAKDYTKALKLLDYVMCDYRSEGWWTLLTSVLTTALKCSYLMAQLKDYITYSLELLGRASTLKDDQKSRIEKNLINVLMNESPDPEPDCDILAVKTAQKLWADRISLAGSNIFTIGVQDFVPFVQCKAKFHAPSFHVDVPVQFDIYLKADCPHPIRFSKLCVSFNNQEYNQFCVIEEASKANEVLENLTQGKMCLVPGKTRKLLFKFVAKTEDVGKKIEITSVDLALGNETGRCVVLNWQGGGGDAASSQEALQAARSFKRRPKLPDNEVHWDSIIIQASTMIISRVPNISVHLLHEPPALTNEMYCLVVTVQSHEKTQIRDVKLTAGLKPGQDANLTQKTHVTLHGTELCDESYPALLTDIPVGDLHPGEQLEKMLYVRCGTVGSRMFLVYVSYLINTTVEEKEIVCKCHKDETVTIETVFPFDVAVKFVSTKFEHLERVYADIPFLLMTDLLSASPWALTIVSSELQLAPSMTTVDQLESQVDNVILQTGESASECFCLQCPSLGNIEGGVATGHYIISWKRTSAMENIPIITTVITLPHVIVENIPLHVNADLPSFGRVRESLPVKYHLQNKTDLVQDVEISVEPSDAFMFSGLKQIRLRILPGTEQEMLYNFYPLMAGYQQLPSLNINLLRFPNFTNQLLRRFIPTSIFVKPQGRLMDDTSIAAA
UniProt Q9Y2L5: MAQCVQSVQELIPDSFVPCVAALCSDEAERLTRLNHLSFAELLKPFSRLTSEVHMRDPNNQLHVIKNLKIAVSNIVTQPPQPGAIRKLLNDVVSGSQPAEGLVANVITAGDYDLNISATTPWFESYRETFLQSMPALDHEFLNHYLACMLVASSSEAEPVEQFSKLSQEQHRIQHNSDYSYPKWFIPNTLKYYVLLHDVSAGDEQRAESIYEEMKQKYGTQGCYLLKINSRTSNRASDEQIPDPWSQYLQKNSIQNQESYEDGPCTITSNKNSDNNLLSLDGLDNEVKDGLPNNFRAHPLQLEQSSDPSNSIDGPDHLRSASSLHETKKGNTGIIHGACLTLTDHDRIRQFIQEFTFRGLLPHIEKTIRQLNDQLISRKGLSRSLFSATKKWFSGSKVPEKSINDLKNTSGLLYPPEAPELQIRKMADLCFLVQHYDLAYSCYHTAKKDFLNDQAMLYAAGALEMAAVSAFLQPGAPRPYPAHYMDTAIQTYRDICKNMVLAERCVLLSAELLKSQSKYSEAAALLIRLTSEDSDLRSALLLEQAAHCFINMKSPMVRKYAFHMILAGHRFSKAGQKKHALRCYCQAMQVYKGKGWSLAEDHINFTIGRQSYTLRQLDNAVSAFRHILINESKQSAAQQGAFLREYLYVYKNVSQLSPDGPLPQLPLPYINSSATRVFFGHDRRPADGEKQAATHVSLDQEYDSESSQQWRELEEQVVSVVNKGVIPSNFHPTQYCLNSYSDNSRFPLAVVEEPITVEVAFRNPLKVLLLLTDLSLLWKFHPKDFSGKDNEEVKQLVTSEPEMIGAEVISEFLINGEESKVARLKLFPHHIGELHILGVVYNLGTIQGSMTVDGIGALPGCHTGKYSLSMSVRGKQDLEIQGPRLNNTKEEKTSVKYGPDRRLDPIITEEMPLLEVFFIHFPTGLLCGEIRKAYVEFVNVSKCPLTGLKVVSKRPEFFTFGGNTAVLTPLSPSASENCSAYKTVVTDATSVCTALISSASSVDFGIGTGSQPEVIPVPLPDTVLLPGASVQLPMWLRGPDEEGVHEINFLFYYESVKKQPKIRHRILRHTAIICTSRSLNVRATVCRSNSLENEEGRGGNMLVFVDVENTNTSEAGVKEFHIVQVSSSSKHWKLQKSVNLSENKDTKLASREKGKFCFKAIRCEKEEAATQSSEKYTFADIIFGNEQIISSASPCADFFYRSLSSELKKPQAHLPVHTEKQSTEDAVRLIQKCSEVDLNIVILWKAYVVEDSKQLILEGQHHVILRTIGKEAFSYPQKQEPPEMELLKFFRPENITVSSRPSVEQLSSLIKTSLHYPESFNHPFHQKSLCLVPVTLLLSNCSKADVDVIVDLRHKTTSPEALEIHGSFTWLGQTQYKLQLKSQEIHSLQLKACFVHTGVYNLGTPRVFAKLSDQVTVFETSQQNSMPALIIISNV
UniProt Q9Y5R8: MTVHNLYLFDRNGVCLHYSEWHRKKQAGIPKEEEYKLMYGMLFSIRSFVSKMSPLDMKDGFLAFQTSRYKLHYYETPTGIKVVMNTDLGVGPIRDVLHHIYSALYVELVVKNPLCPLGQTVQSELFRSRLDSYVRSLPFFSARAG
UniProt Q9UL33: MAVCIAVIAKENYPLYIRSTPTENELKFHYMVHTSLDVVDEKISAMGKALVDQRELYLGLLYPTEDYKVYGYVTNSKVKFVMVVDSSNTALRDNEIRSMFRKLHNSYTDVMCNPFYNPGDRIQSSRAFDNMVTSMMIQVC
UniProt Q9Y296: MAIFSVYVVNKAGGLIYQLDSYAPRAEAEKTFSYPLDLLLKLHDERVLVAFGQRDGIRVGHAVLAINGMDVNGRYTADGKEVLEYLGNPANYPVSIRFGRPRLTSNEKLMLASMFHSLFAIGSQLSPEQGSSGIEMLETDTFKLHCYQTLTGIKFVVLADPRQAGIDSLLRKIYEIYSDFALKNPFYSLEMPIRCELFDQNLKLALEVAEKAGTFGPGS
UniProt Q8IUR0: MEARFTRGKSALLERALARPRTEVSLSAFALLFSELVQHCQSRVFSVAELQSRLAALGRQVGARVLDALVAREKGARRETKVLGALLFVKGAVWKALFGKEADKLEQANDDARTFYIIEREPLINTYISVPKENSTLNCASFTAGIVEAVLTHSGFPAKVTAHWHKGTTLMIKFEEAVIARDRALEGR
UniProt A5PLN9: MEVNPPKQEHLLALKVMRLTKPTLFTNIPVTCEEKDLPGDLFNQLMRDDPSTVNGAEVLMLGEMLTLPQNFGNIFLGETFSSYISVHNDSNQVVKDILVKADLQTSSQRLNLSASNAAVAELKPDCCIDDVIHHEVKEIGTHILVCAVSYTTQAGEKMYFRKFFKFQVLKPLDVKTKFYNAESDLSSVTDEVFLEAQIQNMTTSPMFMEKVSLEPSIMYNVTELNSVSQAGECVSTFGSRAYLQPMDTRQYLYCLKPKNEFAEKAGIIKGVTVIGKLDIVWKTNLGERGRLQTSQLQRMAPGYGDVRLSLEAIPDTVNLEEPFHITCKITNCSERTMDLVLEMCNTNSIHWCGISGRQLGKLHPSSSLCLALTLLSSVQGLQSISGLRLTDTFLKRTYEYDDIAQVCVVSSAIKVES
UniProt O43617: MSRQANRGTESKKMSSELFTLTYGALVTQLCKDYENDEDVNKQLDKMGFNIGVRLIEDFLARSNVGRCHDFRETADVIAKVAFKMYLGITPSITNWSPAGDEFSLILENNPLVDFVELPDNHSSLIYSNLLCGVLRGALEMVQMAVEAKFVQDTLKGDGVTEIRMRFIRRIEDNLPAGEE
UniProt O75865: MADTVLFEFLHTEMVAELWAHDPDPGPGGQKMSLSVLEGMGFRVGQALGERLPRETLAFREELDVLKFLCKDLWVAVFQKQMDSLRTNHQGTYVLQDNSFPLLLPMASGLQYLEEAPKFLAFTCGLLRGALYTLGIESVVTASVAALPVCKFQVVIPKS

Assays:
TRAPPC12 (mammalian) = TRAPPC12 (mammalian) (UniProt Q8WVT3); test: affinity purification with mass spectrometry + SEC
TRAPPC11 (mammalian) = TRAPPC11 (mammalian) (UniProt Q7Z392); test: affinity purification with mass spectrometry + SEC

| binding (TRAPPC12 (mammalian)) | binding (TRAPPC11 (mammalian)) | Substance |
| --- | --- | --- |
| binds | binds | TRAPPC8 (from UniProt Q9Y2L5 1-1435) |
| binds | binds | TRAPPC1 (from UniProt Q9Y5R8 1-145) |
| binds | binds | TRAPPC2L (from UniProt Q9UL33 1-140) |
| binds | binds | TRAPPC4 (from UniProt Q9Y296 1-219) |
| binds | binds | TRAPPC5 (from UniProt Q8IUR0 1-188) |
| binds | binds | TRAPPC13 (from UniProt A5PLN9 1-417) |
| binds | binds | TRAPPC3 (from UniProt O43617 1-180) |
| binds | binds | TRAPPC6A (from UniProt O75865 1-159) |
| binds |  | TRAPPC11 (from UniProt Q7Z392 1-1133) |

No constants are given. Whether binding was seen depends on the method and setting. Binding seen in cells or lysates may run through a third protein. Here binding means that the protein was enriched with, or labelled near, the bait; the list need not be complete.
